According to the supplement of paper PMC10849652:
This is one part of the list.

Amino acid sequences for entries named in this document (tags omitted). A change or cut given only in a name is not applied to a line headed by its entry.
UniProt Q969F1: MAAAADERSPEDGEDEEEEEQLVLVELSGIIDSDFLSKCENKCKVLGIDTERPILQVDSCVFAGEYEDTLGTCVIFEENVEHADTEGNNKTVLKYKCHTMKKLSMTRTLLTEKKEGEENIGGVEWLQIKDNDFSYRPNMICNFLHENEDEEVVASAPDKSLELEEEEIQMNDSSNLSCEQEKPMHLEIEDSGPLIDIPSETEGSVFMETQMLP
UniProt Q969S8: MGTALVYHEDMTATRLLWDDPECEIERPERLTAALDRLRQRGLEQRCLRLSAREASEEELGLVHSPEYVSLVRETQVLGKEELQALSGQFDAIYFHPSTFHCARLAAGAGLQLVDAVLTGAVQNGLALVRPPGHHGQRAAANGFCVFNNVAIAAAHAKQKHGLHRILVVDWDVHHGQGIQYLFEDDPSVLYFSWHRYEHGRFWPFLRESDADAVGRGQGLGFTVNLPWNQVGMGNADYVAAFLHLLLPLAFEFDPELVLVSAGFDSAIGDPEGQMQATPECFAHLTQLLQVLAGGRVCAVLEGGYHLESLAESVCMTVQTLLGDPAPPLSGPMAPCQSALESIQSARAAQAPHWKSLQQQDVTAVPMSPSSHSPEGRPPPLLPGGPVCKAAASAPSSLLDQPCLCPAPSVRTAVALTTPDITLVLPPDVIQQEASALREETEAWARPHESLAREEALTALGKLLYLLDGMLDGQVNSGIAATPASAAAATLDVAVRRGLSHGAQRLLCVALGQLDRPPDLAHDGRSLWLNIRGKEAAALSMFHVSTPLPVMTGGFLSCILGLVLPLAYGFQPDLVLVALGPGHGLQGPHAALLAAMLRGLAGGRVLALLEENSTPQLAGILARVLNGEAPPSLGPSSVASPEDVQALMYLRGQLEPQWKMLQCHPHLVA
UniProt P51610: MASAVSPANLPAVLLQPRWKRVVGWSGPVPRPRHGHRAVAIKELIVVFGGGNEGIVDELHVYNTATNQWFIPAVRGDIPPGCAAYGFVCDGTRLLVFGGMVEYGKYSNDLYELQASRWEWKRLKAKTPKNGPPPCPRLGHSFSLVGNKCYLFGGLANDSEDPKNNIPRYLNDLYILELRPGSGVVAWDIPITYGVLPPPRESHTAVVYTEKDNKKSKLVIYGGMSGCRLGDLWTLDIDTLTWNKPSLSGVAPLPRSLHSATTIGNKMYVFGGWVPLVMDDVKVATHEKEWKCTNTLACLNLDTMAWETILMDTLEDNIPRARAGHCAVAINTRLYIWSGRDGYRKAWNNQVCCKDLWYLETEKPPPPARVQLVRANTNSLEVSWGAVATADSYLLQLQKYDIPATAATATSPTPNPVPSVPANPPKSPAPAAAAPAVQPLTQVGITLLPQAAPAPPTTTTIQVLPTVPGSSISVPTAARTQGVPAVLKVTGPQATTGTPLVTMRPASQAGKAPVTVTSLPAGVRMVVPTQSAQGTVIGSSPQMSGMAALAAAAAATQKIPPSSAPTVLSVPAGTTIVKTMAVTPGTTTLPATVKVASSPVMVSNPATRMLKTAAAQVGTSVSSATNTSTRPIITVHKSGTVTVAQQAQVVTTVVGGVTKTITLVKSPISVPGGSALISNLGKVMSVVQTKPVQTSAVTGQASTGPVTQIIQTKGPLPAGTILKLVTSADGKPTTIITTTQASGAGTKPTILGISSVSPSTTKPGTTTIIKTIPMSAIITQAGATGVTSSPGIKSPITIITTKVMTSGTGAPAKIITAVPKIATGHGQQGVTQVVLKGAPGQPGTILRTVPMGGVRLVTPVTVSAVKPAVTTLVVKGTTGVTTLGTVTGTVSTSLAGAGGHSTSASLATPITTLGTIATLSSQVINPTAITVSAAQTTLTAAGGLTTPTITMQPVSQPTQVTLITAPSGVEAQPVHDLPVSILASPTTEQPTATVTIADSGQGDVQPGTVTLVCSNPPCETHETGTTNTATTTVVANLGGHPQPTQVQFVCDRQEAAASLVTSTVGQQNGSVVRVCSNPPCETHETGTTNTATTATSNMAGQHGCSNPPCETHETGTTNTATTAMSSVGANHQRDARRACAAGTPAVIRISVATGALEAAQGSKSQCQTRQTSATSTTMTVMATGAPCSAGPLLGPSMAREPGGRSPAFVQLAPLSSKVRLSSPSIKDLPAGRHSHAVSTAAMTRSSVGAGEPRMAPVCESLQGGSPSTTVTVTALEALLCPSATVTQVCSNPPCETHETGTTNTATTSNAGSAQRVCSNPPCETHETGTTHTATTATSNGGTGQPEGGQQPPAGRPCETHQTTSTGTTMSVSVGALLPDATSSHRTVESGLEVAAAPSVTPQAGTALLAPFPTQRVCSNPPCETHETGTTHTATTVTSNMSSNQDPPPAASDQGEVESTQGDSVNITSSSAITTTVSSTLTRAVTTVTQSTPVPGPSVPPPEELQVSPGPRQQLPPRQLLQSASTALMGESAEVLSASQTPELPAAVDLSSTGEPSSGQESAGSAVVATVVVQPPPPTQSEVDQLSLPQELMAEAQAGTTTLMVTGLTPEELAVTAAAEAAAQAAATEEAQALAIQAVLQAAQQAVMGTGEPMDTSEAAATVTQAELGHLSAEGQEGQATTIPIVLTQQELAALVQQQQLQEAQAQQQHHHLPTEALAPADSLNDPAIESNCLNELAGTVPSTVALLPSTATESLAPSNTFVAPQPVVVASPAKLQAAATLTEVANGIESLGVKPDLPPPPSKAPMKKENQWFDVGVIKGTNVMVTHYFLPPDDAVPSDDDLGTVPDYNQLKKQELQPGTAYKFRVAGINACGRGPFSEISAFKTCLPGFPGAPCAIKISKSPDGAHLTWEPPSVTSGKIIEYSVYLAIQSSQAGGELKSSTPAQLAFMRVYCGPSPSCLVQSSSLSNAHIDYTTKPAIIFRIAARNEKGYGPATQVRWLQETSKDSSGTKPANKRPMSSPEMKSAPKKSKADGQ
UniProt Q96MH2: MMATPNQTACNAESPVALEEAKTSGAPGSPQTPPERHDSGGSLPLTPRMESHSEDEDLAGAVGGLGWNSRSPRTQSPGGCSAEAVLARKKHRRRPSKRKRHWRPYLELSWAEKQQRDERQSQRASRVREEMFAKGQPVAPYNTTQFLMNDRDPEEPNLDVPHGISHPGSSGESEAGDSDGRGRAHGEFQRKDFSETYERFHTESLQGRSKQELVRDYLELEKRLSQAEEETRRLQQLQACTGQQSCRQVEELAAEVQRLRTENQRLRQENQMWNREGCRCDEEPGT
UniProt Q8N3Z3: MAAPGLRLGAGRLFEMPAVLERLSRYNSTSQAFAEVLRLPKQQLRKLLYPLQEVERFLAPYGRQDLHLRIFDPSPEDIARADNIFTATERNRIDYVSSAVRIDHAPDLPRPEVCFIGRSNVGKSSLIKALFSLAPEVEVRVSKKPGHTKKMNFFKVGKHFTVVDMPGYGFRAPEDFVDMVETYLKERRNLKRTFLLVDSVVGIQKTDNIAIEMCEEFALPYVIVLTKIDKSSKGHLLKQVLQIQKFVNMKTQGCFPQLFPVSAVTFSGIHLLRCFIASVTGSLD
UniProt Q6PII5: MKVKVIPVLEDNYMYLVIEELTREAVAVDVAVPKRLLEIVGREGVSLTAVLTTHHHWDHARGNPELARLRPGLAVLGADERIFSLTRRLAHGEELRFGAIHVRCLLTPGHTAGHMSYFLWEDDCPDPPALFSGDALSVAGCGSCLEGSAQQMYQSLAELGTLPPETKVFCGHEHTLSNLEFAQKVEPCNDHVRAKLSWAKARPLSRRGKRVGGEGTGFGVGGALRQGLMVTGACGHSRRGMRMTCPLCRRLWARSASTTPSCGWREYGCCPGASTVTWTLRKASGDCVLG
UniProt Q6Y1H2: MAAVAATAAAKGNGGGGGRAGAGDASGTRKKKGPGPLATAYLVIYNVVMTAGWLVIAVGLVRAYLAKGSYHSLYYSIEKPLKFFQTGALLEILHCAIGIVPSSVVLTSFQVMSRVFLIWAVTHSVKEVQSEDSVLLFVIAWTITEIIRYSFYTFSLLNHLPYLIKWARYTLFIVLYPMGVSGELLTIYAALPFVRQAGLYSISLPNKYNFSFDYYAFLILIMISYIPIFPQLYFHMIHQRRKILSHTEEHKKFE
UniProt P68871: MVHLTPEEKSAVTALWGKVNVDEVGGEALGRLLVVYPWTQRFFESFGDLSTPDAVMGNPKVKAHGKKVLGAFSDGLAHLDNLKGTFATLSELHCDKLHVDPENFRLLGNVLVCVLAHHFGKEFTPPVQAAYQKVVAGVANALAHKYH
UniProt Q14469: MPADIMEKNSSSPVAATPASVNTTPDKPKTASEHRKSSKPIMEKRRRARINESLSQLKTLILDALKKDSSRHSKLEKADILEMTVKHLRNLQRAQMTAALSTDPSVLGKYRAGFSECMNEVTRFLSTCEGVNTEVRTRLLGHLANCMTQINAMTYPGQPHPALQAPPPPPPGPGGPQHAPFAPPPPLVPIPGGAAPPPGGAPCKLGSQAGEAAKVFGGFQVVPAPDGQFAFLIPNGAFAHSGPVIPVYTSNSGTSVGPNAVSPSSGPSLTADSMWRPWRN
UniProt O15488: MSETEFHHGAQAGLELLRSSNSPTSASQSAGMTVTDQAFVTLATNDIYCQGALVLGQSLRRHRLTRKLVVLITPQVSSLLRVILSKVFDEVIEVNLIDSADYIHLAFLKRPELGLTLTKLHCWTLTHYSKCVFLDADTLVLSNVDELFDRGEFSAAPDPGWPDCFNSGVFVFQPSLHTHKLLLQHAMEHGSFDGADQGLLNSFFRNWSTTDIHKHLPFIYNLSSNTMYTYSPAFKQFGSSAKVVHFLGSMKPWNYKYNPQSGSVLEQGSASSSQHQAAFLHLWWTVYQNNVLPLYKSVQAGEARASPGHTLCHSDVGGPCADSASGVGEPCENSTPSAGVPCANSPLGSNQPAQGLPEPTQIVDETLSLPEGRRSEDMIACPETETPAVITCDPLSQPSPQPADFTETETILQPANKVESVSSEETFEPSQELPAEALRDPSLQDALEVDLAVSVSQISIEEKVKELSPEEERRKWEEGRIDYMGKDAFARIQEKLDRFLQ
UniProt Q9BY41: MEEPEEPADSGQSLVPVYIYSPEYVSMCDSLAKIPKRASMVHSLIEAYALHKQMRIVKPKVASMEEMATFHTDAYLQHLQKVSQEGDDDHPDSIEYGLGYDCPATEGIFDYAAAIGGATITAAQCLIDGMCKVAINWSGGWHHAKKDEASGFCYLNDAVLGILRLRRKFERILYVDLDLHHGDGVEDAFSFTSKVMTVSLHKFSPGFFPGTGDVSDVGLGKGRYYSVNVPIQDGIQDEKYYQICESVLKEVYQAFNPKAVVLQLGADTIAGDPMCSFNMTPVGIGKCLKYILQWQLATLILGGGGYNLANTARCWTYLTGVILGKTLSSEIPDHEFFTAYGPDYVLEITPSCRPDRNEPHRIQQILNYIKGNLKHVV
UniProt O75367, whole entry, looked up: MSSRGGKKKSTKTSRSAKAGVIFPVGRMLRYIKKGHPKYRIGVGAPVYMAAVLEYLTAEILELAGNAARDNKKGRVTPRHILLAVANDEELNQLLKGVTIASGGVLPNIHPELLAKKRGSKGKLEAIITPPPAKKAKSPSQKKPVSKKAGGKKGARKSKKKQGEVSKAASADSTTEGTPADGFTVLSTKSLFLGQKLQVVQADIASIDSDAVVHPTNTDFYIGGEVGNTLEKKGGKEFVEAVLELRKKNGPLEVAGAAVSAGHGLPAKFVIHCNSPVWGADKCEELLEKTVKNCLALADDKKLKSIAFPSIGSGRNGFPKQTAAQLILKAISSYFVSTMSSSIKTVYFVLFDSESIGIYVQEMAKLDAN
UniProt Q9NVX0: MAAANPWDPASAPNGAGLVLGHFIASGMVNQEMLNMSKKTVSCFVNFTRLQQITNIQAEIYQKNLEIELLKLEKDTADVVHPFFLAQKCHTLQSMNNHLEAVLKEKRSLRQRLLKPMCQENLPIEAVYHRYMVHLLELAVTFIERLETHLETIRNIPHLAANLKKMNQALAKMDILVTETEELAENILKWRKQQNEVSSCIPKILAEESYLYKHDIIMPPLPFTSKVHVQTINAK
UniProt P30711: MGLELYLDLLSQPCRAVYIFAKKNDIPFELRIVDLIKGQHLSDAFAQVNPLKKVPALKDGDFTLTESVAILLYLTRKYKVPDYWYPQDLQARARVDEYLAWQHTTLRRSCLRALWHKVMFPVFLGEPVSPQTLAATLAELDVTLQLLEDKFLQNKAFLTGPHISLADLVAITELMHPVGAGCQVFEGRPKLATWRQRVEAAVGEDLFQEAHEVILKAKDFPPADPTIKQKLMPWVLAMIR
UniProt Q5JVS0: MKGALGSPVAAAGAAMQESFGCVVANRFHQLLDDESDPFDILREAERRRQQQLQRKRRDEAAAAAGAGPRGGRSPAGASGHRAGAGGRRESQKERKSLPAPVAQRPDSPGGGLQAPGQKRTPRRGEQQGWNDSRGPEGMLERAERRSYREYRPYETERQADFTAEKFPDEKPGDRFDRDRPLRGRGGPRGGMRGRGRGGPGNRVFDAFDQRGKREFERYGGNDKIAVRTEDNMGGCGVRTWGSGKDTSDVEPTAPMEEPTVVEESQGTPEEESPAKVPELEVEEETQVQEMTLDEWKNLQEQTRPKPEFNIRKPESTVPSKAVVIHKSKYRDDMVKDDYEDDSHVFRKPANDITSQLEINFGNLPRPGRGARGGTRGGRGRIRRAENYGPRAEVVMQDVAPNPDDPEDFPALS

Experiments:
Experiment in all cases: log2 fold change, soluble protein after heating vs DMSO (PISA); higher = thermal stabilisation; K562 cells, 10 uM, 30 min; active = over 0.2 and 3.5 SD of the protein, either way, in both replicates (recomputed)
[1] = compound: NC(=O)Nc1cc(-c2cccc(F)c2)sc1C(=O)N[C@H]1CCCNC1
Procedure, shortened: (§1)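 Quantification of soluble protein used TMTpro 16plex LC-MS/MS, with channel sums equalised. Samples were the supernatant after 21,000xg for 90 min of pooled aliquots from K562 cells (2×10^6 cells/mL) treated with 10 μM compound for 30 min, heated for 3 min over 48°C-58°C, and extracted in PBS with 0.5% NP-40 at 4°C. Values, from duplicates, describe thermal stability against control samples on a log2 fold-change scale.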

entinostat = compound: Nc1ccccc1NC(=O)c1ccc(CNC(=O)OCc2cccnc2)cc1 [entinostat]
Procedure, shortened: as §1

[2] = compound: O=C1NC(=O)C(c2cnc3ccccn23)=C1c1cn2c3c(cc(F)cc13)CN(C(=O)N1CCCCC1)CC2
Procedure, shortened: as §1

[3] = compound: NC1(c2ccc(-c3nc4ccn5c(=O)[nH]nc5c4cc3-c3ccccc3)cc2)CCC1
Procedure, shortened: as §1

silmitasertib = compound: O=C(O)c1ccc2c(c1)nc(Nc1cccc(Cl)c1)c1ccncc12 [silmitasertib]
Procedure, shortened: as §1

[4] = compound: NCC(=O)Nc1ccc(-n2nc(C(F)(F)F)cc2-c2ccc3c(ccc4ccccc43)c2)cc1
Procedure, shortened: as §1

vorinostat = compound: O=C(CCCCCCC(=O)Nc1ccccc1)NO [vorinostat]
Procedure, shortened: as §1

citarinostat = compound: O=C(CCCCCCNC(=O)c1cnc(N(c2ccccc2)c2ccccc2Cl)nc1)NO [citarinostat]
Procedure, shortened: as §1

[5] = compound: c1cc(OCCN2CCCCC2)cc(-c2n[nH]c3ccc(-c4nnc[nH]4)cc23)c1
Procedure, shortened: as §1

entospletinib = compound: c1cn2cc(-c3ccc4cn[nH]c4c3)nc(Nc3ccc(N4CCOCC4)cc3)c2n1 [entospletinib]
Procedure, shortened: as §1

[6] = compound: NC(=O)c1cnc(N[C@@H]2CCCC[C@@H]2N)nc1Nc1cccc(-n2nccn2)c1
Procedure, shortened: as §1

Measured: log2 fold change

HGD (UniProt Q93099)
inactive: [1] 0 | entinostat -0.1 | [2] 0.029

HGFAC (UniProt Q04756)
inactive: [3] 0.132 | silmitasertib 0.161 | [2] 0.215

GTF3C6 (UniProt Q969F1)
inactive: [1] -0.04 | [3] -0.047 | [4] 0.085 | entinostat -0.021 | vorinostat -0.061 | citarinostat 0.086 | silmitasertib 0.131 | [2] 0.164 | [5] -0.165 | entospletinib 0.027

HDAC10 (UniProt Q969S8)
inactive: [6] 0.061 | [3] -0.076 | [4] -0.033 | vorinostat 0.208 | citarinostat 0.062 | silmitasertib -0.271 | [5] -0.09

HAUS8 (UniProt Q9BT25)
inactive: [6] -0.038 | [3] 0.115 | [4] 0.197 | vorinostat 0.274 | silmitasertib -0.008

HCFC1 (UniProt P51610)
inactive: [1] -0.072 | [3] -0.088 | [4] -0.012 | entinostat -0.088 | vorinostat -0.17 | citarinostat -0.449 | silmitasertib -0.056 | [5] 0.124 | entospletinib 0.206

HEXIM2 (UniProt Q96MH2)
inactive: [4] 0.131 | vorinostat -0.285 | [2] -0.165

HGF (UniProt P14210)
inactive: [1] -0.109 | [3] -0.159 | entinostat -0.074 | citarinostat -0.04 | silmitasertib 0.078 | [2] -0.048 | [5] 0.117 | entospletinib 0.052

HAUS3 (UniProt Q68CZ6)
inactive: [6] -0.076 | [3] -0.059 | [4] 0.121 | citarinostat -0.045 | silmitasertib 0.103 | [2] 0.119 | [5] -0.128 | entospletinib 0.055

GTPBP8 (UniProt Q8N3Z3)
inactive: [4] -0.135 | citarinostat 0.007 | [5] -0.019 | entospletinib -0.026

HAGHL (UniProt Q6PII5)
inactive: [1] 0.078 | [3] -0.03 | entinostat 0.004 | citarinostat -0.065 | silmitasertib 0.075 | [2] 0.146 | [5] 0.036 | entospletinib 0.038

GSKIP (UniProt Q9P0R6)
inactive: [6] 0.079 | [3] -0.037 | [4] 0.205 | vorinostat -0.1 | citarinostat -0.038 | silmitasertib 0.061 | [5] -0.006 | entospletinib 0.028

HELLS (UniProt Q9NRZ9)
inactive: vorinostat 0.408 | [2] -0.231

HACD2 (UniProt Q6Y1H2)
inactive: [3] -0.124 | silmitasertib -0.046

HBZ, A0A494C057
inactive: [3] -0.022 | citarinostat -0.197 | silmitasertib 0.005 | [5] 0.876

H3-2 (UniProt Q5TEC6)
inactive: [1] -0.29 | [3] 0.05 | [4] -0.447 | entinostat -0.077 | vorinostat 0.29 | citarinostat -0.251 | silmitasertib 0.39 | [5] -0.342 | entospletinib 0.264

HAUS7 isoform 2 (UniProt Q99871)
inactive: [6] 0.066 | [4] 0.006

HBB (UniProt P68871)
inactive: [6] 1.75 | [3] 0.151 | citarinostat 0.054 | silmitasertib -0.122 | [5] -0.193 | entospletinib 0.548

HERPUD1 (UniProt Q15011)
inactive: [3] -0.038 | [4] 0.085 | silmitasertib 0.248

HES1 (UniProt Q14469)
inactive: [6] -0.181 | [3] -0.015 | vorinostat 0.327 | silmitasertib -0.052

GYG2 (UniProt O15488)
inactive: [3] -0.136 | silmitasertib -0.032

HBD (UniProt E9PEW8)
inactive: [3] 0.032 | vorinostat -0.053 | silmitasertib 0.023

HDAC8 (UniProt Q9BY41)
inactive: [2] 0.244

H2AFY (UniProt O75367)
inactive: [3] 0.147 | vorinostat 0.174 | citarinostat 0.067 | silmitasertib 0.042 | [2] 0.165 | [5] 0.01 | entospletinib 0.185

HAUS2 (UniProt Q9NVX0)
inactive: [6] 0.106 | [3] 0.074 | citarinostat -0.191 | silmitasertib 0.13 | [5] -0.04 | entospletinib -0.278

GTF2H1 (UniProt P32780)
inactive: [3] 0.126 | [4] 0.128 | vorinostat -0.093 | citarinostat 0.146 | silmitasertib -0.087 | [5] -0.192 | entospletinib -0.124

HERPUD2 (UniProt Q9BSE4)
inactive: [6] 0.042 | [4] 0.098

GTF3C3 (UniProt Q9Y5Q9)
inactive: [3] 0.201 | vorinostat 0.012 | citarinostat -0.031 | silmitasertib -0.222 | [5] -0.248 | entospletinib 0.051

H1-0 (UniProt P07305)
inactive: citarinostat -0.123 | [5] 0.132 | entospletinib -0.115

GSTT1 (UniProt P30711)
inactive: [6] 0.012 | [3] 0.03 | [4] 0.08 | vorinostat -0.022 | citarinostat -0.018 | silmitasertib -0.074 | [2] 0.019 | [5] -0.012

GZF1 (UniProt Q9H116)
inactive: [1] 0.047 | [6] 0.195 | [4] -0.121 | entinostat -0.077

3 entries drawn at random from the list so far:
GZF1 (UniProt Q9H116)
inactive: [1] 0.047 | [6] 0.195 | [4] -0.121 | entinostat -0.077

GTF2H1 (UniProt P32780)
inactive: [3] 0.126 | [4] 0.128 | vorinostat -0.093 | citarinostat 0.146 | silmitasertib -0.087 | [5] -0.192 | entospletinib -0.124

GSTT1 (UniProt P30711)
inactive: [6] 0.012 | [3] 0.03 | [4] 0.08 | vorinostat -0.022 | citarinostat -0.018 | silmitasertib -0.074 | [2] 0.019 | [5] -0.012

Later entries

GXYLT1 (UniProt Q4G148)
inactive: [6] -0.04 | [3] -0.031 | [4] 0.002 | vorinostat 0.233 | citarinostat 0.323 | silmitasertib -0.11 | [2] 0.414 | [5] -0.02 | entospletinib -0.042

HEXD isoform 2 (UniProt Q8WVB3)
inactive: [1] 0.099 | [4] -0.012 | entinostat 0.059 | vorinostat 0.064 | [2] 0.031

HABP4 (UniProt Q5JVS0)
inactive: [2] -0.065

GSTA1 (UniProt P08263)
inactive: [1] 0.22 | [4] -0.101 | entinostat 0.126 | [2] 0.332
